{"source": "patent US20120065614A1", "about": "(UNIVERSITY OF NORTH TEXAS, priority 2010, published 2012)", "key": {"[1]": {"test": "Photoluminescence enhancement, titration of gold phosphor with microgel and heating", "assay_type": "physicochemical"}, "[2]": {"conditions": "cited from earlier work"}}, "note": "Read-outs that look alike come from different tables or passages of the source.", "data": [{"smiles": "O=S(=O)([O-])c1cccc([PH](c2cccc(S(=O)(=O)[O-])c2)(c2cccc(S(=O)(=O)[O-])c2)[Au]([PH](c2cccc(S(=O)(=O)[O-])c2)(c2cccc(S(=O)(=O)[O-])c2)c2cccc(S(=O)(=O)[O-])c2)[PH](c2cccc(S(=O)(=O)[O-])c2)(c2cccc(S(=O)(=O)[O-])c2)c2cccc(S(=O)(=O)[O-])c2)c1", "note": "[Na8[Au(TPPTS)3], tris[tris(3,3′,3″-trisulfonatophenyl)phosphine]aurate(I)]", "values": [{"measurement": "PL change on heating", "setting": "[1]; aqueous solution in absence of the PNIPAM microgel, ambient temperature to 37° C.", "value": "quenching"}, {"measurement": "PL enhancement", "setting": "[1]; freshly synthesized Au phosphor 1×10^−5 M (3.00 mL), smaller increments of ~3.5 wt. % microgel", "value": "up to 157 fold"}, {"measurement": "PL enhancement", "setting": "[1]; gold phosphor 1×10^−5 M, titrated with PNIPAM-co-allylamine microgel, RT", "value": 9, "unit": "fold"}, {"measurement": "PL enhancement", "setting": "[1]; gold phosphor 1×10^−6 M, titrated with PNIPAM-co-allylamine microgel, RT", "value": 50, "unit": "fold"}, {"measurement": "PL enhancement", "setting": "[1]; gold phosphor 3×10^−6 M, titrated with PNIPAM-co-allylamine microgel, RT", "value": 17, "unit": "fold"}, {"measurement": "PL enhancement", "setting": "[1]; gold phosphor 5×10^−5 M, titrated with PNIPAM-co-allylamine microgel at constant microgel concentration, RT", "value": 4, "unit": "fold"}, {"measurement": "PL enhancement", "setting": "[1]; gold phosphor 5×10^−6 M, titrated with PNIPAM-co-allylamine microgel, RT", "value": 14, "unit": "fold"}, {"measurement": "PL enhancement", "setting": "[1]; on addition of 0.2 mL of microgel, ~1×10^−6 M Au phosphor (2.50 mL), ~2.0 wt. % microgel, pH 5.5, room temperature", "value": "up to 70 fold"}]}, {"smiles": "c1cc2ccc3cccc4ccc(c1)c2c34", "note": "[pyrene]", "values": [{"measurement": "PL enhancement", "setting": "[2]; embedded in hydrophobic polystyrene (toluene solution)", "value": 40, "unit": "fold"}]}, {"smiles": "O=C([O-])CC(O)(CC(=O)[O-])C(=O)[O-].[Tb+3]", "note": "[terbium citrate]", "values": [{"measurement": "PL enhancement", "setting": "[2]; upon binding to silver nanoparticles in solution (Zhou and co-workers)", "value": 1.72, "unit": "fold"}]}]}
